PubChem BioAssay AID1508588, Peter MacCallum Cancer Centre – 2020
Test: 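Genome-wide search for knock-downs that heighten vemurafenib action in melanoma cells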 (primary screen). Cell system: human WM266.4 melanoma cells (BRAF V600 mutant). Reagent: siRNA pool against human genes, 40 nM. Time to read-out: 96 h from transfection to read-out. Challenge: vemurafenib 300 nM (about IC25), added 48 h after transfection, for 48 h; comparison arm got DMSO vehicle only. Measurement: 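Cell gain (DAPI nuclei at end minus before drug, mean of two replicates) and medium lactate by absorbance per cell, both as ratio to non-targeting siRNA, also grouped into fold-change classes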. Direction: cell gain with vemurafenib: higher = more cell gain than with non-targeting siRNA; lactate per cell with vemurafenib: higher = more lactate made per cell. Call rule: 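a knock-down counts as enhancing when its fold-change classes with vehicle and with vemurafenib, taken together, show a stronger drug effect on cell gain or lactate per cell; exact class pairs not stated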. Calls: active = enhances vemurafenib effect; inactive = no enhancement seen.
This is one part, drawn at random, of about 18,000 deposited reagents. 790 of all reagents (4.4%) were called active. 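Calls rest on a combination of fold-change classes in drug and vehicle arms, not all shown here.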

| target | cell gain with vemurafenib | lactate per cell with vemurafenib | activity call |
| --- | --- | --- | --- |
| KRT16 (GeneID 3868) | 0.55 | 1.58 | inactive |
| ANAPC10 (GeneID 10393) | 0.53 | 0.92 | inactive |
| PLPP5 (GeneID 84513) | 0.72 | 0.55 | inactive |
| CWC27 (GeneID 10283) | 0.65 | 0.82 | inactive |
| SMC2 (GeneID 10592) | 0.36 | 1.18 | inactive |
| GPR6 (GeneID 2830) | 0.62 | 0.87 | inactive |
| TAC1 (GeneID 6863) | 0.9 | 0.31 | inactive |
| PEAK3 (GeneID 374872) | 0.16 | 2.43 | inactive |
| NTRK1 (GeneID 4914) | 0.3 | 0.98 | inactive |
| ENAH (GeneID 55740) | 0.66 | 0.62 | inactive |
| CXorf58 (GeneID 254158) | 0.66 | 0.76 | inactive |
| PEX19 (GeneID 5824) | 0.89 | 0.73 | inactive |
| PRRC1 (GeneID 133619) | 0.82 | 0.9 | inactive |
| PLGRKT (GeneID 55848) | 1.17 | 0.38 | inactive |
| ADAMTS18 (GeneID 170692) | 0.42 | 1.17 | inactive |
| TIMM17B (GeneID 10245) | 0.71 | 0.89 | inactive |
| WWC3 (GeneID 55841) | 0.13 | 0.87 | inactive |
| GNG7 (GeneID 2788) | 0.5 | 0.64 | inactive |
| GABRG1 (GeneID 2565) | 0.87 | 1.29 | inactive |
| ANKRD13B (GeneID 124930) | 0.8 | 0.38 | active |
| LIMK1 (GeneID 3984) | 1 | 0.94 | inactive |
| ARHGAP21 (GeneID 57584) | 0.45 | 1.75 | inactive |
| SIGLEC15 (GeneID 284266) | 0.66 | 0.66 | inactive |
| IFT140 (GeneID 9742) | 0.8 | 0.58 | inactive |
| NARF (GeneID 26502) | 0.69 | 0.62 | inactive |
| TXNIP (GeneID 10628) | 0.31 | 1.04 | inactive |
| ZNF668 (GeneID 79759) | 0.43 | 0.97 | inactive |
| UTP14C (GeneID 9724) | 0.69 | 0.77 | inactive |
| RIPOR1 (GeneID 79567) | 0.14 | 2.06 | inactive |
| SPATA1 (GeneID 100505741) | 0.52 | 0.99 | inactive |
| CCL3 (GeneID 6348) | 0.18 | 0.62 | active |
| SERPINA10 (GeneID 51156) | 0.46 | 1.08 | inactive |
| NAMPT (GeneID 10135) | 0.92 | 1.14 | inactive |
| ATF4 (GeneID 468) | 0.32 | 1.05 | inactive |
| IRGQ (GeneID 126298) | 0.58 | 2.31 | inactive |
| DDAH1 (GeneID 23576) | 0.82 | 0.8 | inactive |
| RNASEK (GeneID 440400) | 0.73 | 1.01 | inactive |
| TREML4 (GeneID 285852) | 0.47 | 1.18 | inactive |
| PPCDC (GeneID 60490) | 0.36 | 1.6 | inactive |
| ZNF264 (GeneID 9422) | 1.17 | 0.69 | inactive |
| HPS1 (GeneID 3257) | 0.94 | 1.25 | inactive |
| DDB2 (GeneID 1643) | 0.95 | 0.65 | inactive |
| TSNAX (GeneID 7257) | 0.68 | 0.06 | inactive |
| CLCNKA (GeneID 1187) | 0.9 | 1.02 | inactive |
| SPRN (GeneID 503542) | 1.03 | 0.7 | inactive |
| DNAJC12 (GeneID 56521) | 1.13 | 0.82 | inactive |
| DEFB125 (GeneID 245938) | 0.89 | 0.39 | inactive |
| KEAP1 (GeneID 9817) | 0.1 | 2.26 | inactive |
| MTBP (GeneID 27085) | 0.19 | 1.69 | inactive |
| ADA2 (GeneID 51816) | 0.28 | 1.19 | inactive |
| EQTN (GeneID 54586) | 0.69 | 1.16 | inactive |
| NCOA1 (GeneID 8648) | 0.68 | 1.04 | inactive |
| IFT25 (GeneID 51668) | 0.53 | 1.06 | inactive |
| UBAC2 (GeneID 337867) | 0.41 | 1.73 | inactive |
| ZNF786 (GeneID 136051) | 0.51 | 0.56 | inactive |
| GZMH (GeneID 2999) | 0.22 | 1.31 | inactive |
| OR13C9 (GeneID 286362) | 0.35 | 0.74 | inactive |
